According to publication PMC7316729, “The cryo-EM structure of the bacterial flagellum cap complex suggests a molecular mechanism for filament elongation” (Nature Communications, 2020):
These are yes or no findings as the source states them, for the method shown. Some results given as binding are weak or reduced against the parent protein; the word gives no strength. Where a sequence is shown, tags or fusion partners need not be part of it.

Molecular target: FliD from Campylobacter jejuni, full length (flagellum cap protein) (C. jejuni) (UniProt Q9PHW6)
Test: negative-stain TEM with 2D classification; purified protein on carbon-coated copper grids, 0.75% uranyl formate; ~3500 particles for FliDsm and 2700 for FliDpa, 2D class averages; both purified

B1: FliD from Campylobacter jejuni, full length (flagellum cap protein) (natural protein)
chain: MAFGSLSSLGFGSGVLTQDTIDKLKEAEQKARIDPYTKKIEENTTKQKDLTEIKTKLLSFQTAVSSLADATVFAKRKVVGSISDNPPASLTVNSGVALQSMNINVTQLAQKDVYQSKGLANDGGFVNAQLNGTADLTFFSNGKEYTVTVDKNTTYRDLADKINEASGGEIVAKIVNTGEKGTPYRLTLTSKETGEDSAISFYAGKKDSNGKYQKDINAEKIFDDLGWGLDVSASIDPDKDKKGYGIKDASLHIQTAQNAEFTLDGIKMFRSSNTVTDLGVGMTLTLNKTGEINFDVQQDFEGVTKAMQDLVDAYNDLVTNLNAATDYNSETGTKGTLQGISEVNSIRSSILADLFDSQVVDGTTEDANGNKVNTKVMLSMQDFGLSLNDAGTLSFDSSKFEQKVKEDPDSTESFFSNITKYEDINHTGEVIKTGSLSKYLNSNGGNTNGLEFKPGDFTIVFNNQTYDLSKNSDGTNFKLTGKTEEELLQNLANHINSKGIEGLKVKVESYNQNNVTGFRLNFSGDGSSDFSIKGDANILKELGLSDVNITSKPIEGKGIFSKLKATLQEMTGKDGSITKYDESLTNDIKSLNTSKDSTQAMIDTRYDTMANQWLQYESILNKLNQQLNTVTNMINAANNSNN
notes: FliD (flagellar cap protein, HAP2) of Campylobacter jejuni; gene codon-optimised for E. coli, synthesised and sub-cloned into pET28a; printed numbering runs to residue 643 (C-terminus 577-643); The D4 domain was not built in the model 6SIH; also called FliDcj; HAP2; source: E. coli BL21-CodonPlus(DE3)-RIL, purified (Ni-NTA, Superdex 200 SEC)
binding: binds
